Measured values: PubChem BioAssay AID2685 (National Center for Advancing Translational Sciences (NCATS), 2010)
Some of the results follow. The main result of the screen is listed elsewhere. These columns were measured beside it and carry no call. The list favours compounds with an active or inconclusive main result. The note in brackets gives the kind of curve behind each potency; many fits are weak.

Assay: qHTS Assay for Lipid Storage Modulators in Drosophila S3 Cells;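 on cell number change: cells counted by Cell Tracker Red CMTPX staining in the red channel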
Settings: BODIPY lipid droplet fluorescence, 18-24 h; for cell number change: measured here: cell count max response, cells fed with added oleic acid
Summary of the method: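 Drosophila S3 cells got compounds at several concentrations plus oleic acid (400 uM solution). Laser-scanning cytometry with 488 nm excitation read lipid droplets at 500-530 nm and cells at 575-640 nm. Percent activity was relative to 20 uM Triacsin C.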

[1] = measured here: lipid fluorescence (Fed channel) AC50, cells fed with added oleic acid
[2] = measured here: cell number channel AC50, cells fed with added oleic acid

| SMILES | cell number change | AC50 [1] | AC50 [2] |
| --- | --- | --- | --- |
| O=C(Nc1sc2c(c1C(=O)O)CCCC2)c1ccc(Cl)cc1 | 17.5% | 29.1 µM [rising, single point] | – |
| Cc1cc(C)c(S(=O)(=O)C(C)C)c(=O)[nH]1 | -4.75% | – | – |
| CCOCCCn1c(SCC(=O)N(C)C2CCS(=O)(=O)C2)nc2ccccc2c1=O (configuration not stated) | – | 6.51 µM [rising, partial curve, poor fit] | 6.51 µM [falling, single point] |
| Cc1c(N=Cc2ccc(Cl)o2)c(=O)n(-c2ccccc2)n1C | -15.3% | – | 0.00461 µM [falling, full curve, poor fit] |
| CCOC(=O)c1ccc(NC(=O)N2CCc3ccccc3C2)cc1 | 17.9% | – | – |
| CC(C)CN(C(=O)c1cccc(Cl)c1)c1c(N)n(CC(C)C)c(=O)[nH]c1=O | 22.1% | 0.103 µM [rising, single point] | – |
| Cc1onc(-c2ccccc2Cl)c1C(=O)OCC(=O)c1ccccc1 | 6.03% | 29.1 µM [falling, partial curve] | – |
| CCN1CCN(c2nc3ccccc3nc2NS(=O)(=O)c2ccc(NC(C)=O)cc2)CC1 | 14.9% | – | – |
| COC(=O)C1CC(=O)N(c2ccc(C)cc2)C1 (configuration not stated) | -4.26% | 0.326 µM [falling, full curve] | 0.461 µM [falling, full curve] |
| CC(C)[C@H](NC(N)=O)C(=O)Nc1ccc(Oc2ccccc2)cc1 | 48.8% | 6.51 µM [falling, single point] | 1.84 µM [rising, partial curve] |
| O=c1cc(-c2ccncc2)oc2ccccc12 | 20.6% | – | 0.00461 µM [rising, full curve, poor fit] |
| O=C(NC1CCCc2ccccc21)C1CCC(CNS(=O)(=O)c2cccc3nsnc23)CC1 (configuration not stated) | -13.3% | 1.64 µM [rising, full curve] | – |
| Cc1nnc(NC(=O)CSCc2cc(=O)c3ccccc3[nH]2)s1 | 18.8% | 25.9 µM [rising, single point] | – |
| Cc1ccc(NS(=O)(=O)c2ccc3oc(=O)ccc3c2)cc1Cl | -2.03% | 16.4 µM [falling, single point] | – |
| CN1CCN(S(=O)(=O)c2ccc3ccccc3c2)CC1 | -0.132% | 0.259 µM [falling, full curve] | – |
| Cc1nn(-c2ccccc2)c2nc(Cl)c(C(=O)O)cc12 | – | 1.03 µM [rising, full curve] | 0.92 µM [rising, full curve] |
| CCOC(=O)c1c(N2C(=O)C3C4C=CC(O4)C3C2=O)sc2c1CCCC2 (configuration not stated) | -2.92% | – | 0.164 µM [falling, full curve, poor fit] |
| COc1ccc(-n2cnc3cc(NCc4ccco4)ccc32)cc1 | – | 2.31 µM [rising, partial curve] | 0.461 µM [rising, partial curve, poor fit] |
| COCCOc1cc(N)c(Cl)cc1Cl | 33% | 0.184 µM [rising, full curve] | 0.146 µM [rising, full curve, poor fit] |

| SMILES | cell number change | AC50 [1] | AC50 [2] |
| --- | --- | --- | --- |
| CNC(=O)c1ccc(NC(=O)CC2SC(N3CCCC3)=NC2=O)cc1 (configuration not stated) | -40.5% | 2.91 µM [rising, full curve] | 25.9 µM [falling, single point] |
| CNCc1c(OCc2ccc(F)cc2)ccc2ccccc12 | – | 0.0291 µM [falling, full curve, poor fit] | – |
| COc1ccc(Cl)cc1NC(=O)C1CCN(C(=O)C2CC(=O)N(c3ccc(C)cc3)C2)CC1 (configuration not stated) | 6.25% | 0.326 µM [rising, partial curve, poor fit] | – |
| COc1cc(CCN2C(=O)N[C@@H](c3cccc(C(F)(F)F)c3)C(C(C)=O)=C2C)cc(OC)c1OC | -13% | 1.84 µM [rising, partial curve, poor fit] | – |
| CCN(CC)Cc1ccccc1Sc1ccccc1 | -26.2% | 5.8 µM [falling, full curve] | – |
| CCCCOC(=O)CSC(=S)N(C)Cc1cccs1 | -34.3% | 2.31 µM [falling, partial curve] | 2.59 µM [falling, full curve, poor fit] |
| Cc1cc(NC(=O)Cc2ccccc2)no1 | -2.13% | – | – |
| CCOc1cc(C2C3=C(CCCC3=O)NC3=C2C(=O)CCC3)cc(Cl)c1O | -17.3% | 3.26 µM [falling, single point] | – |
| COc1ccc(-c2nnc(SCc3ccccc3F)o2)cc1OC | -31.5% | – | 14.6 µM [falling, partial curve] |
| C=C(C)CSc1nnc(-c2ccc(C)cc2)n1N | 10.1% | 0.411 µM [rising, partial curve, poor fit] | – |
| CCN1CCN(C(=O)C2CCC(CNS(=O)(=O)c3ccc(NC(C)=O)cc3)CC2)CC1 (configuration not stated) | 3.42% | 0.146 µM [rising, single point] | – |
| CC(OC(=O)CN(C)S(=O)(=O)c1ccc(Cl)cc1)C(=O)Nc1cccc(Cl)c1 (configuration not stated) | 9.64% | 0.731 µM [falling, full curve] | – |
| Cc1cc(C)cc(OCC(=O)OCC(=O)Nc2cc(S(=O)(=O)N3CCOCC3)ccc2C)c1 | -12.7% | – | – |
| C=CCN1C(=O)CN=C1Nc1ccccc1 | -7.2% | 6.51 µM [rising, single point] | – |
| CN(C)CCCN(C(=O)c1ccc(S(=O)(=O)N2CCCCCC2)cc1)c1nc2ccc(Br)cc2s1 | 14.7% | 29.1 µM [rising, single point] | 1.84 µM [rising, partial curve] |
| CC(C)c1ccc(NC(=O)CSc2nc3ccsc3c(=O)n2Cc2ccc(C(=O)O)cc2)cc1 | -21.9% | – | – |
| COCCCN(C(=O)CCOc1ccc(C)cc1)c1c(N)n(Cc2ccccc2)c(=O)[nH]c1=O | – | – | 2.31 µM [rising, partial curve, poor fit] |
| COc1ccc(C(CNC(=O)c2cccc(S(=O)(=O)Nc3ccccc3OC)c2)N2CCOCC2)cc1 (configuration not stated) | -13.4% | 2.31 µM [falling, partial curve, poor fit] | 2.59 µM [falling, partial curve, poor fit] |
| O=C(Nc1cc([N+](=O)[O-])ccc1C(=O)NCCN1CCOCC1)c1ccccc1 | 7.92% | 3.66 µM [rising, single point] | – |

Structures from the list above that have an NH in an aromatic ring:

| SMILES | cell number change | AC50 [1] | AC50 [2] |
| --- | --- | --- | --- |
| Cc1cc(C)c(S(=O)(=O)C(C)C)c(=O)[nH]1 | -4.75% | – | – |
| CC(C)CN(C(=O)c1cccc(Cl)c1)c1c(N)n(CC(C)C)c(=O)[nH]c1=O | 22.1% | 0.103 µM [rising, single point] | – |
| Cc1nnc(NC(=O)CSCc2cc(=O)c3ccccc3[nH]2)s1 | 18.8% | 25.9 µM [rising, single point] | – |
| COCCCN(C(=O)CCOc1ccc(C)cc1)c1c(N)n(Cc2ccccc2)c(=O)[nH]c1=O | – | – | 2.31 µM [rising, partial curve, poor fit] |

Further results

| SMILES | cell number change | AC50 [1] | AC50 [2] |
| --- | --- | --- | --- |
| Cc1cccc(C(=O)N[C@H](C(=O)NCCc2ccc(Cl)cc2)C(C)C)c1 | 12.1% | 0.146 µM [rising, full curve, poor fit] | – |
| O=C(O)c1ccccc1C(=O)NNc1cccc(Cl)n1 | -1.41% | 0.00517 µM [falling, full curve, poor fit] | – |
| CCOC(=O)c1sc2nc(CC(=O)OC)nc(NCCN3CCOCC3)c2c1C | – | 5.8 µM [rising, partial curve] | 4.11 µM [rising, partial curve, poor fit] |
| CN(C)Cc1ccc(F)cc1Sc1cc(Cl)ccc1Cl | -56.3% | 29.1 µM [falling, single point] | 23.1 µM [falling, single point] |
| CCOC(=O)NC1(C(F)(F)F)C(=O)N(Cc2ccccn2)C2=C1C(=O)CC(C)(C)C2 (configuration not stated) | -30.6% | 6.51 µM [falling, partial curve] | 0.00366 µM [falling, full curve, poor fit] |
| CCCCCN(C(=O)CCC(=O)OCC(=O)c1ccc(C(C)CC)cc1)c1c(N)n(CCCC)c(=O)[nH]c1=O (configuration not stated) | – | – | 0.00461 µM [rising, full curve, poor fit] |
| CCOc1ccc(C2c3cc(OC)c(OC)cc3CC(=O)N2c2ccccc2)cc1 (configuration not stated) | -17.2% | 0.00517 µM [falling, full curve, poor fit] | 0.164 µM [falling, full curve, poor fit] |
| COc1ccc(S(=O)(=O)N(C)c2ccccc2)c2cccnc12 | -15.8% | – | – |
| Cc1cccc(NS(=O)(=O)c2ccc(C)c(C(=O)NCC(c3ccco3)N3CCCCC3)c2)c1 (configuration not stated) | -23% | 29.1 µM [falling, single point] | – |
| CCc1ccc(NC(=S)N(CCC(C)C)C2CCN(C(C)=O)CC2)cc1 | – | 6.51 µM [rising, partial curve, poor fit] | – |
| Cc1cc(S(=O)(=O)N2CCCCC2CCNC(=O)C(=O)NCc2cccnc2)ccc1F (configuration not stated) | -29.7% | 0.00517 µM [falling, full curve, poor fit] | – |
| CC12CCC(C(=O)NCc3cccnc3)(OC1=O)C2(C)C (configuration not stated) | 2.19% | 0.00517 µM [falling, full curve, poor fit] | – |
| Cc1cc2ncn(C(=O)c3c(-c4ccccc4)noc3C)c2cc1C | -16.7% | – | – |
| CCN(C(=O)COC(=O)c1ccc(C=O)cc1)c1c(N)n(Cc2ccccc2)c(=O)[nH]c1=O | 9.73% | 0.291 µM [rising, partial curve, poor fit] | – |
| Cc1noc(C)c1S(=O)(=O)N(CC(=O)NCCc1ccccc1)c1ccc(C(C)C)cc1 | -7.08% | – | – |
| COC(=O)C1=C(C)NC(C)=C(C(=O)OC)C1c1ccccc1OCc1c(C)no[n+]1[O-] | -24.9% | – | 0.461 µM [falling, full curve, poor fit] |
| C=CCN(CC(=O)NC1CCCC1)C(=O)C(=O)Nc1ccc2c(c1)OCCO2 | 19.2% | 0.103 µM [rising, full curve, poor fit] | – |
| COc1cc(-c2nc(Cc3c(F)cccc3Cl)no2)cc(OC)c1OC | – | 6.51 µM [rising, single point] | 4.11 µM [rising, single point] |
| CCCCC1=NN(C(=O)c2cccnc2)C(O)(C(F)(F)F)C1 (configuration not stated) | -21.5% | 3.66 µM [falling, full curve] | 4.11 µM [falling, single point] |
